± gives the standard deviation of the averaged measurements. The list shows a part of the results, in another mix than the full data.
compound: Nc1ncnc2c1ncn2[C@@H]1O[C@H](COP(=O)(O)OP(=O)(O)NP(=O)(O)O)[C@@H](O)[C@H]1O [adenylyl imidodiphosphate]; test: NP40-soluble protein abundance relative to vehicle (solubility fold change) (ratio); higher = more soluble protein in presence of AMP-PNP; settings: concentration: 1mM
Method in brief: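 Across three independent experiments, values are fold changes against the detergent-processed vehicle for each replicate, based on vsn-normalised intensities. The samples were Jurkat crude lysate treated with eight concentrations (0.1 to 10 mM) for 10 min at room temperature and then 3 min at 37 °C. Lysate was solubilised with 0.8% NP40 and benzonase, ultracentrifuged, and the supernatant analysed by TMT-labelled LC-MS/MS.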

Protein sequences, listed by entry. Tags and fused reporters are not part of them. Lines headed by an entry give the natural chain unless they say otherwise; changes in a name come on top.
UniProt Q9BUB5: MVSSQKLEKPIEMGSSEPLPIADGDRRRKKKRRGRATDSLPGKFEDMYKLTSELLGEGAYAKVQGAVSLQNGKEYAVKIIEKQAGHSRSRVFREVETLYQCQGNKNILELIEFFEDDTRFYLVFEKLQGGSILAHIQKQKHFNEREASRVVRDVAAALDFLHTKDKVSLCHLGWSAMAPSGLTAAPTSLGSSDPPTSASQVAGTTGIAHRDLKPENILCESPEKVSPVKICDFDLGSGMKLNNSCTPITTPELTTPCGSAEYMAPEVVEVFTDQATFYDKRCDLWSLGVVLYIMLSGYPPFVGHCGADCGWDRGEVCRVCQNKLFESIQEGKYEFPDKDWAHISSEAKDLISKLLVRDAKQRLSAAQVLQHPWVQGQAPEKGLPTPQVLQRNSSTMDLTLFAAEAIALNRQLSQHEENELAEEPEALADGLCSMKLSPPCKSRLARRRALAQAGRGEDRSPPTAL
UniProt Q96S55: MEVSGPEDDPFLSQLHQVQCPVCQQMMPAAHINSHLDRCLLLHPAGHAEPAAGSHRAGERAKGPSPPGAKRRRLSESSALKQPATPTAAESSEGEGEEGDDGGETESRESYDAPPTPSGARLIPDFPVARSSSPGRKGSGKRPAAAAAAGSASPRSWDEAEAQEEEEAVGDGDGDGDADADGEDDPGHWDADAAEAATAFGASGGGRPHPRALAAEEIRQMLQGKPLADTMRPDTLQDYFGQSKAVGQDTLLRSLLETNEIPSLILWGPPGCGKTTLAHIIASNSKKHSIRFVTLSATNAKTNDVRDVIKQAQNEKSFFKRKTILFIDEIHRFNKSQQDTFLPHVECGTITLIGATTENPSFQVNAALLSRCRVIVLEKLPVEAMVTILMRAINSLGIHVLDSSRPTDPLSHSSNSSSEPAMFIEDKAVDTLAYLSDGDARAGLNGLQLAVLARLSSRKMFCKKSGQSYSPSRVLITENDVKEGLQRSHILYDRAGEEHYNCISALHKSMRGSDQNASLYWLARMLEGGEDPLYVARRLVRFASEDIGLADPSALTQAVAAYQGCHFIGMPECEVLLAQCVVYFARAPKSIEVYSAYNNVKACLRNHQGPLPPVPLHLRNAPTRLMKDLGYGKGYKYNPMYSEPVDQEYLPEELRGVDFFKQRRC
UniProt Q9BWS9: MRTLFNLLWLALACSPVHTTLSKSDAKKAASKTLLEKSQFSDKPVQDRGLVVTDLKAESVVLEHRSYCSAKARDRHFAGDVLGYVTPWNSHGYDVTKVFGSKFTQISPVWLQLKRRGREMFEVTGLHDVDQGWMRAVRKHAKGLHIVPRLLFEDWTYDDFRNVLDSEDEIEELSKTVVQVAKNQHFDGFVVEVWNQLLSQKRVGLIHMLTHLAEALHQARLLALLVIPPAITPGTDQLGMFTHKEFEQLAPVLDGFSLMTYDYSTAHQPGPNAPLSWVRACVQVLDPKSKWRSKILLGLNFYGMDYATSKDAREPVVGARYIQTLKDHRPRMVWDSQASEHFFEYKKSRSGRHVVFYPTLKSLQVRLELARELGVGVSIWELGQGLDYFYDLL
UniProt Q9BUK6: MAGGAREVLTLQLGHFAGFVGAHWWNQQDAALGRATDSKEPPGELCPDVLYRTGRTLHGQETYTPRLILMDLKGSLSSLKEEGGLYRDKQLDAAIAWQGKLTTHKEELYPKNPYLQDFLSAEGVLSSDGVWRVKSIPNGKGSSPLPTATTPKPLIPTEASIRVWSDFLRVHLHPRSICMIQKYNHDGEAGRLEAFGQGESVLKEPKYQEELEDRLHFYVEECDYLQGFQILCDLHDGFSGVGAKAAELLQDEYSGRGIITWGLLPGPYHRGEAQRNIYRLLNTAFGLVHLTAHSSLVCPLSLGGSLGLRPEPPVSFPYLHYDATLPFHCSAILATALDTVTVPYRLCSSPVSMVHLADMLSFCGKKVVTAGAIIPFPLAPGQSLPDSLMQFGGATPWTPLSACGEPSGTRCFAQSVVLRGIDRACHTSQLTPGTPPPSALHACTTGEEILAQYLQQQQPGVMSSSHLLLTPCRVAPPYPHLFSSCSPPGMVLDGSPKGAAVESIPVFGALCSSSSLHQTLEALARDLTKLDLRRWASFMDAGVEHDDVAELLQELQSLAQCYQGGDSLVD
UniProt Q9BPZ3: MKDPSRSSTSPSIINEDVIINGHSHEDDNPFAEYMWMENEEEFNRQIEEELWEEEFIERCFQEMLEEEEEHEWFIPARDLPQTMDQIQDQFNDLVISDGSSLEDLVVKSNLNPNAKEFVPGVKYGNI
UniProt Q9BT23: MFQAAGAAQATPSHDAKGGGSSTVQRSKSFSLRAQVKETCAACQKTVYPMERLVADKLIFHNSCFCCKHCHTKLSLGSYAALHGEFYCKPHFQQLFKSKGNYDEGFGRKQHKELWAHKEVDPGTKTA
UniProt Q9BT73: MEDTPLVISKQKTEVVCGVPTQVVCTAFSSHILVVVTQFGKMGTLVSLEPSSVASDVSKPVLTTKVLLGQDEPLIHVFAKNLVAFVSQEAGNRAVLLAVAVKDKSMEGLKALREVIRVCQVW
UniProt Q99797: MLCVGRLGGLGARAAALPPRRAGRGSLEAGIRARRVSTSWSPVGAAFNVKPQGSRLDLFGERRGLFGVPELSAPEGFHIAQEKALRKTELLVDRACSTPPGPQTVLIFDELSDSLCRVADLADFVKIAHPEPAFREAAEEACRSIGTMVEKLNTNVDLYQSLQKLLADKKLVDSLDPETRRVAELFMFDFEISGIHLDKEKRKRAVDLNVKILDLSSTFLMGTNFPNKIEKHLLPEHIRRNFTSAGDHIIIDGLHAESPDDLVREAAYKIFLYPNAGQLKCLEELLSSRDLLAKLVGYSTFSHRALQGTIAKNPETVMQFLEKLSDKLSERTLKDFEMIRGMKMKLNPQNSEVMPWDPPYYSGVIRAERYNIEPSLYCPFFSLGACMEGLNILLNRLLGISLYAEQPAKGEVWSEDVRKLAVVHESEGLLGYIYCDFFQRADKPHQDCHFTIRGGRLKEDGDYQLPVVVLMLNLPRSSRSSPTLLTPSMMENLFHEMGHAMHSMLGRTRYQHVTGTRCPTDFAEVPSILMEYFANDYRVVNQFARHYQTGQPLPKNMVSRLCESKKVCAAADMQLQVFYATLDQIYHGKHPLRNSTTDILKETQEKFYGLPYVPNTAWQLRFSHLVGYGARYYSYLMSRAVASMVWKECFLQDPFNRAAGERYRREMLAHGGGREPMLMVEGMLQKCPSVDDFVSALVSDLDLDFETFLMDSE
UniProt Q96SU4: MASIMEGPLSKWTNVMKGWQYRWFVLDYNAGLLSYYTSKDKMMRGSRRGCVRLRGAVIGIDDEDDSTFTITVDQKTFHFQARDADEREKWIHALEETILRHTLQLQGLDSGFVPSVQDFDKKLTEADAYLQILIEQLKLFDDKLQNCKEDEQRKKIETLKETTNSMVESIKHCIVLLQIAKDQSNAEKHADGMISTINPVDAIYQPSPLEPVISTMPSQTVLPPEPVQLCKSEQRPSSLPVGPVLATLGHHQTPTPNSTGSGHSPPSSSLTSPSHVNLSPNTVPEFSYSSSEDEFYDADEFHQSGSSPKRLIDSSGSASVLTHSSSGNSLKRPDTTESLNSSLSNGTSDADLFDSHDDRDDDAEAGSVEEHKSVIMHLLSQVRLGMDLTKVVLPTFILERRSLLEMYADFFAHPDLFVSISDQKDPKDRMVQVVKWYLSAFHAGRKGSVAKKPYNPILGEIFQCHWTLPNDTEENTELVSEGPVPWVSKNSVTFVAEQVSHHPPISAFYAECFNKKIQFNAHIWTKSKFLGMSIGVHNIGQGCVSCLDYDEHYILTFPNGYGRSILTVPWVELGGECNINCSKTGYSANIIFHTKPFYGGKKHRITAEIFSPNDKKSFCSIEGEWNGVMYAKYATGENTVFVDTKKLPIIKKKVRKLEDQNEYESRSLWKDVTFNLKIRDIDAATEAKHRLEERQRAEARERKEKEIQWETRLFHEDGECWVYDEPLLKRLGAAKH
UniProt Q9BV73: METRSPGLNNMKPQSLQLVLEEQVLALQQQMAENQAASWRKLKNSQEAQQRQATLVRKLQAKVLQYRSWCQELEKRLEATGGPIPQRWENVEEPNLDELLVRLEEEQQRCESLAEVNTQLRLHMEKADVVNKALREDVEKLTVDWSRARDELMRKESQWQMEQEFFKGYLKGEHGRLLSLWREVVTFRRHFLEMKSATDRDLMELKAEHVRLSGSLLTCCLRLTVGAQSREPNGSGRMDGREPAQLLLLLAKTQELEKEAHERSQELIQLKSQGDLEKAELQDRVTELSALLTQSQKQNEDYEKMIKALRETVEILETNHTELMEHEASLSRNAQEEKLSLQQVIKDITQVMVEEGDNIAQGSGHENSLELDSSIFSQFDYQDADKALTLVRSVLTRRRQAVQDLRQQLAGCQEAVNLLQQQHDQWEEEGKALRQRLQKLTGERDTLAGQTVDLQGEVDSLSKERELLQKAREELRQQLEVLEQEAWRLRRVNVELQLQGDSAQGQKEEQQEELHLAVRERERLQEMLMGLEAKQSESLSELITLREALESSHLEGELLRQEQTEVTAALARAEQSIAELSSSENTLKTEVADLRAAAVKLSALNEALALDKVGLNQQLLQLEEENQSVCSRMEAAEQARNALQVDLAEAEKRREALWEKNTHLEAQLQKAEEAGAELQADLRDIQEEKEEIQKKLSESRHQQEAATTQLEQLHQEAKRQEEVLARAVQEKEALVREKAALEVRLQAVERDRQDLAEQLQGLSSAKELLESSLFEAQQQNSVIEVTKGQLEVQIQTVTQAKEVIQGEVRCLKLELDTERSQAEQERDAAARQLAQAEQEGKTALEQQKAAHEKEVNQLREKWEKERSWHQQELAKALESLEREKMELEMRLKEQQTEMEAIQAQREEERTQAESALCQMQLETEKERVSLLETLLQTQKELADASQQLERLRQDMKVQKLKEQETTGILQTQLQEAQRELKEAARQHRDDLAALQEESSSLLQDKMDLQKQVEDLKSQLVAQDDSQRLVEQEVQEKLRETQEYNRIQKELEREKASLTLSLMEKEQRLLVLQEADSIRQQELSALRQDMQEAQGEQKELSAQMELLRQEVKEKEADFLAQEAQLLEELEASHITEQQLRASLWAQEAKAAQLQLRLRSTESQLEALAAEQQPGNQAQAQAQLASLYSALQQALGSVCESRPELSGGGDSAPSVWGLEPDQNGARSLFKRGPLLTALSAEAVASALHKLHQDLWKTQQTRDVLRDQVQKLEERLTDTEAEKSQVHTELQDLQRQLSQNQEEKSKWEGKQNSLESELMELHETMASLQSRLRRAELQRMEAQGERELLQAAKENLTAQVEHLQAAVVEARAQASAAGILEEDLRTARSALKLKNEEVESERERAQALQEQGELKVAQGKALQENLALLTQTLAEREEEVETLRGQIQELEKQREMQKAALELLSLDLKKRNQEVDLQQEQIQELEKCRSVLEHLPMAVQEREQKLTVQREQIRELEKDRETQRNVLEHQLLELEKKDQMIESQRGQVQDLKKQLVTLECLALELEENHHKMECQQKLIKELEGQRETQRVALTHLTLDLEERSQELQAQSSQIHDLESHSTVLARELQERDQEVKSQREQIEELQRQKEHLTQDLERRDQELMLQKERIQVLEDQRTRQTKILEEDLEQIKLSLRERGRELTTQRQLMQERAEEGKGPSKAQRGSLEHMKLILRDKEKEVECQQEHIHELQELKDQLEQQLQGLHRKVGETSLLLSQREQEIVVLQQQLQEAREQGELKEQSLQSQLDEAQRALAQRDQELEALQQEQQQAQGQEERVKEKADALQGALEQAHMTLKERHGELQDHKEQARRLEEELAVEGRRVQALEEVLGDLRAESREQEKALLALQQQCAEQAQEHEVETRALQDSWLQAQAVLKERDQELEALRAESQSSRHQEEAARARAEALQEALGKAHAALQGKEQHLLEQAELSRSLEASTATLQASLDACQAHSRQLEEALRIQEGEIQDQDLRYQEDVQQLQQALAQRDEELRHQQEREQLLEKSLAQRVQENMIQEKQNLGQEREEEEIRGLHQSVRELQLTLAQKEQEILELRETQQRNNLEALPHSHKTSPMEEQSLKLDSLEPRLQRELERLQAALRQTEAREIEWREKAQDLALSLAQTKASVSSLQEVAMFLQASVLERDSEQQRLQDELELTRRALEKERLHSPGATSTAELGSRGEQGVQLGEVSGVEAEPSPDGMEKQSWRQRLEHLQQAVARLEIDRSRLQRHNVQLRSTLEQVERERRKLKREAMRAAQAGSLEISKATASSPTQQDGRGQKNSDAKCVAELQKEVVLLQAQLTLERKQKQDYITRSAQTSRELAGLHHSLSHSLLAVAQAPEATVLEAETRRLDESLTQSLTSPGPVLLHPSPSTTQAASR
UniProt Q9BWT6: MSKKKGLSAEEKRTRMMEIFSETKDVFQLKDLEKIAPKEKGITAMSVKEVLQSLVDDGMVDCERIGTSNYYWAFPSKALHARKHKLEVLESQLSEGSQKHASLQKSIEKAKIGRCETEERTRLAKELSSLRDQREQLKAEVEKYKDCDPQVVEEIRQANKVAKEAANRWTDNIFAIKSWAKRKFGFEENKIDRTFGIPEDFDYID

Target	NP40-soluble protein abundance
UniProt Q9BQ39 and related entries	1.22 ± 0.068
UniProt Q9BT25 and related entries	1.01 ± 0.014
TRMT61B (UniProt Q9BVS5)	1 ± 0.04
UniProt Q9BQI3 and related entries	0.946 ± 0.014
UniProt Q9BU76 and related entries	1.03 ± 0.04
UniProt Q9BUB5 and related entries	1.06 ± 0.031
CNPY3 (UniProt Q9BT09)	0.983 ± 0.012
CCT7 (UniProt Q99832)	0.936 ± 0.056
UniProt Q9BXI6 and related entries	0.989 ± 0.036
UniProt Q96S55 and related entries	0.995 ± 0.061
UniProt Q9BWS9 and related entries	0.953 ± 0.038
UniProt Q9BTV5 and related entries	1.0068 ± 0.00083
UniProt Q96ST2 and related entries	0.99 ± 0.041
MRPS26 (UniProt Q9BYN8)	0.988 ± 0.091
YTHDF1 (UniProt Q9BYJ9)	1.05 ± 0.025
UniProt Q9BW85	1.03 ± 0.049
SGPP1 (UniProt Q9BX95)	0.978 ± 0.037
UniProt Q9BUK6 and related entries	0.995 ± 0.046
MAK16 (UniProt Q9BXY0)	1.05 ± 0.037

Target	NP40-soluble protein abundance
TSG101 (UniProt Q99816)	0.991 ± 0.018
UniProt Q9BPZ3 and related entries	0.981 ± 0.02
POP1 (UniProt Q99575)	0.978 ± 0.031
KIFC1 (UniProt Q9BW19)	1.06 ± 0.03
UniProt Q9BTY7	0.954 ± 0.04
PI4K2A (UniProt Q9BTU6)	0.983 ± 0.022
DNAJC7 (UniProt Q99615)	1.02 ± 0.012
KATNB1 (UniProt Q9BVA0)	1.04 ± 0.031
LIMD2 (UniProt Q9BT23)	1.12 ± 0.048
NLN (UniProt Q9BYT8)	1 ± 0.036
UniProt Q9BTX1 and related entries	1.02 ± 0.035
UniProt Q96QZ7 and related entries	1.01 ± 0.03
C1orf50 (UniProt Q9BV19)	0.979 ± 0.015
PSMG3 (UniProt Q9BT73)	0.986 ± 0.06
MIPEP (UniProt Q99797)	0.995 ± 0.028
UniProt Q96SU4 and related entries	1.02 ± 0.02
UniProt Q9BV73 and related entries	0.9944 ± 0.0088
MND1 (UniProt Q9BWT6)	0.958 ± 0.034
FUT8 (UniProt Q9BYC5)	0.973 ± 0.013

11 entries from above in a different format:

| Target | NP40-soluble protein abundance |
| --- | --- |
| UniProt Q9BTY7 | 0.954 ± 0.04 |
| PI4K2A (UniProt Q9BTU6) | 0.983 ± 0.022 |
| DNAJC7 (UniProt Q99615) | 1.02 ± 0.012 |
| KATNB1 (UniProt Q9BVA0) | 1.04 ± 0.031 |
| LIMD2 (UniProt Q9BT23) | 1.12 ± 0.048 |
| NLN (UniProt Q9BYT8) | 1 ± 0.036 |
| UniProt Q9BTX1 and related entries | 1.02 ± 0.035 |
| UniProt Q96QZ7 and related entries | 1.01 ± 0.03 |
| C1orf50 (UniProt Q9BV19) | 0.979 ± 0.015 |
| PSMG3 (UniProt Q9BT73) | 0.986 ± 0.06 |
| MIPEP (UniProt Q99797) | 0.995 ± 0.028 |

Reference: the supplement of paper PMC6411743
